Values from PubChem BioAssay AID504744 (Drosophila RNAi Screening Center, 2011)
The deposit covers about 23,000 reagents; below is an unselected part of those with a known target gene and a result. In the full data, 98 (0.43%) got an active call. 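Only hit calls are given; the phospho-dAkt signals, z-scores and hit direction were not deposited.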 Names joined by + are all predicted targets of the reagent. No sequences are given here.

Aim: 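Find genes whose loss alters insulin-driven dAkt phosphorylation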 (primary screen)
Cell system: Drosophila Kc167 cells
Reagent: long dsRNA against Drosophila genes, 250 ng dsRNA per well of a 384-well plate
Duration: 3 days of knock-down, then overnight serum-free starvation before stimulation
Treatment: bovine insulin at 387 nM for 10 minutes after 12 h without serum
Measured: 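In-cell antibody fluorescence for phospho-dAkt in each well over DNA-dye signal, with log2 residuals expressed as z-scores adjusted for cell count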
Hit rule: 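Under insulin, a gene counts as a hit if the average z-score of two replicates lies above 2.5 or below -2.5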

| gene knocked down | amplicon | activity call |
| --- | --- | --- |
| raw | DRSC03599 | active |
| raw | DRSC03600 | inactive |
| CG30046 | DRSC06691 | inactive |
| twi | DRSC04720 | inactive |
| LSm3 | DRSC15920 | inactive |
| CG15429 | DRSC00444 | inactive |
| Naa20A | DRSC19579 | inactive |
| CG14244 | DRSC14739 | inactive |
| Spn88Ea | DRSC17061 | inactive |
| CG15236 | DRSC04970 | inactive |
| CG15236 | DRSC21396 | inactive |
| Mst33A | DRSC03371 | inactive |
| loj | DRSC09791 | inactive |
| CG14096 | DRSC10099 | inactive |
| Naus | DRSC06011 | inactive |
| Naus | DRSC06469 | inactive |
| Rbp9 | DRSC00416 | inactive |
| Rbp9 | DRSC00779 | inactive |
| CG13133 | DRSC02230 | inactive |
| CG17108 | DRSC02576 | inactive |
| CG17108 | DRSC22214 | inactive |
| Kdm4A | DRSC06586 | inactive |
| Cluap1 | DRSC20637 | inactive |
| CG15408 | DRSC00423 | inactive |
| Jon99Fii | DRSC15430 | inactive |
| CG12547 | DRSC07759 | inactive |
| nanos | DRSC17018 | inactive |
| Dna2 | DRSC18254 | inactive |
| mib2 | DRSC02623 | inactive |
| RpS21 | DRSC00833 | inactive |
| CG10164 | DRSC14197 | inactive |
| NTPase | DRSC00761 | inactive |
| CG42355 | DRSC07967 | inactive |
| Spn38F | DRSC03616 | inactive |
| CG12325 | DRSC06130 | inactive |
| CG15480 | DRSC02490 | inactive |
| FLASH | DRSC06872 | inactive |
| Cht10 | DRSC03766 | inactive |
| Cht10 | DRSC03767 | inactive |
| Cht10 | DRSC03768 | inactive |
| CG14882 | DRSC15006 | inactive |
| TkR86C | DRSC16880 | inactive |
| Rs1 | DRSC05945 | inactive |
| NANS | DRSC15743 | inactive |
| mst | DRSC20582 | inactive |
| CG18547 | DRSC15345 | inactive |
| B9d1 | DRSC14993 | inactive |
| TpnC4 | DRSC04856 | inactive |
| Polr2E | DRSC06100 | inactive |
| CG33255 (retired record) + hpRNA:CR32205 | DRSC09610 | inactive |
| CG33255 (retired record) + hpRNA:CR32205 | DRSC09611 | inactive |
| CG32833 | DRSC04596 | inactive |
| Uch-L5R | DRSC19825 | inactive |
| mRpL43 | DRSC04508 | inactive |
| mRpL43 | DRSC22571 | inactive |
| drk | DRSC07606 | active |
| wda | DRSC15579 | inactive |
| wda | DRSC22351 | inactive |
| Elk | DRSC07608 | inactive |
| mRpL11 | DRSC15482 | inactive |
| Rga | DRSC12364 | inactive |
| CG4653 | DRSC19909 | inactive |
| CG4653 | DRSC22857 | inactive |
| CG14220 | DRSC19577 | inactive |
| CG7394 | DRSC10835 | inactive |
| l(3)72Dr | DRSC10478 | inactive |
| DCTN6-p27 | DRSC02609 | inactive |
| DCTN6-p27 | DRSC22810 | inactive |
| CG31798 | DRSC01702 | inactive |
| CG12017 | DRSC08225 | inactive |
| CG2540 | DRSC19856 | inactive |
| gammaTub23C | DRSC00820 | inactive |
| qkr58E-1 | DRSC04709 | inactive |
| hale | DRSC10882 | inactive |
| Dhdds | DRSC17756 | inactive |
| gwl | DRSC16305 | inactive |
| Pp1-87B | DRSC16794 | inactive |
| DAT | DRSC07394 | inactive |
| CG4660 | DRSC18378 | inactive |
| CG9269 | DRSC16465 | inactive |
| Awh | DRSC08140 | inactive |
| Alp12 | DRSC02515 | inactive |
| CG10479 | DRSC09733 | inactive |
| bbg | DRSC11077 | inactive |
| bbg | DRSC11079 | inactive |
| Atg8a | DRSC18024 | inactive |
| loqs | DRSC02997 | inactive |
| CG33230 | DRSC08602 | inactive |
| CG10561 | DRSC02068 | inactive |
| Zip88E | DRSC15562 | inactive |
| CG13876 | DRSC08346 | inactive |
| CG15471 | DRSC18054 | inactive |
| CG14414 | DRSC19599 | inactive |
| CG12483 | DRSC08278 | inactive |
| Cpn | DRSC16613 | inactive |
| CG7322 | DRSC20036 | inactive |
| NaPi-T | DRSC07476 | inactive |
| Hsp60C | DRSC03036 | inactive |
| CG17145 | DRSC10247 | inactive |
| rnh1 | DRSC07673 | inactive |
| Ugt303A1 | DRSC15641 | inactive |
| fit | DRSC15280 | inactive |
| meso18E | DRSC20351 | inactive |
| CG2961 | DRSC18246 | inactive |
| Ctr1B + Poxm | DRSC16245 | inactive |
| Gbeta13F | DRSC20247 | inactive |
| GluRIA | DRSC11176 | inactive |
| CG14795 | DRSC18513 | inactive |
| CG15167 | DRSC02468 | inactive |
| Sec24CD | DRSC00300 | inactive |
| CG5078 | DRSC11762 | inactive |
| CG9316 | DRSC03195 | inactive |
| CR14499 (retired record) | DRSC06470 | inactive |
| CG32187 | DRSC10521 | inactive |
| CG7606 | DRSC13246 | inactive |
| CG7606 | DRSC16268 | inactive |
| CG34292 | DRSC13807 | inactive |
| sofe | DRSC19751 | inactive |
| CG2604 | DRSC12313 | inactive |
| PIG-T | DRSC17774 | active |
| CG34325 | DRSC19802 | inactive |
| CG34325 | DRSC20200 | inactive |
| cype | DRSC02356 | inactive |
| Trf4-1 | DRSC17775 | inactive |
| AttD | DRSC16272 | inactive |
| Cpr49Ae | DRSC07201 | inactive |
| Pig1 | DRSC18698 | inactive |
| CG7483 | DRSC16249 | inactive |
| CG7483 | DRSC22432 | inactive |
| Dredd | DRSC18461 | inactive |
| CG3548 | DRSC04387 | inactive |
| Ugt37B1 | DRSC03225 | inactive |
| St1 | DRSC04504 | inactive |
| CG7275 | DRSC10796 | inactive |
| Abi | DRSC14099 | inactive |
| AGBE | DRSC06861 | inactive |
| jtb | DRSC06868 | inactive |
| mRpS21 | DRSC12965 | inactive |
| mRpS21 | DRSC21357 | inactive |
| CG15322 | DRSC20680 | inactive |
| CG1640 | DRSC19750 | inactive |
| CG2736 | DRSC04314 | inactive |
| conu | DRSC07810 | inactive |
| Ttc1 | DRSC15016 | inactive |
| Ttc1 | DRSC22469 | inactive |
| nmdyn-D6 | DRSC20355 | inactive |
| SNRPG | DRSC20207 | inactive |
| Tsp42En | DRSC06185 | inactive |
| tei | DRSC07616 | inactive |
| CG15445 | DRSC20517 | inactive |
| rdo | DRSC02452 | inactive |
| CG13958 (retired record) | DRSC02300 | inactive |
| CG18467 | DRSC06758 | inactive |
| CG4021 | DRSC04439 | inactive |
| CG33232 (retired record) | DRSC08187 | inactive |
| CG33232 (retired record) | DRSC08495 | inactive |
| aspr | DRSC20689 | inactive |
| aspr | DRSC20690 | inactive |
| ATPsynGL | DRSC03027 | inactive |
| lectin-24A | DRSC00604 | inactive |
| Poxn | DRSC05589 | inactive |
| Poxn | DRSC07512 | inactive |
| CG31789 | DRSC01645 | inactive |
| Polr3I | DRSC19922 | inactive |
| AstCC | DRSC02404 | inactive |
| CG11298 | DRSC04100 | inactive |
| CG9727 | DRSC12585 | inactive |
| Mitf | DRSC17212 | inactive |
| Mitf | DRSC21056 | inactive |
| CG2694 | DRSC18470 | inactive |
| dah | DRSC20320 | inactive |
| CG32022 | DRSC09678 | inactive |
| Hsp68 | DRSC16712 | inactive |
| CG17472 | DRSC02622 | inactive |
| yellow-e | DRSC12966 | inactive |
| yellow-e | DRSC16563 | inactive |
| gzl | DRSC12517 | inactive |
| CG10177 | DRSC14201 | inactive |
| CG12826 | DRSC06175 | inactive |
| Enoph | DRSC12201 | inactive |
| senju | DRSC02366 | inactive |
| Pitslre | DRSC11874 | inactive |
| hob | DRSC08426 | inactive |
| wnd | DRSC09626 | inactive |
| wnd | DRSC11046 | inactive |
| wnd | DRSC21373 | inactive |
| eRF1 | DRSC11779 | inactive |
| CG30015 | DRSC05241 | inactive |
| CG30015 | DRSC07027 | inactive |
| CG30015 | DRSC07028 | inactive |
| ear | DRSC15675 | inactive |
| CG18404 | DRSC15323 | inactive |
| mge | DRSC08721 | inactive |
| Teh2 | DRSC08458 | inactive |
| CG31270 (retired record) | DRSC22252 | inactive |
| CG11779 | DRSC14384 | inactive |
| Mtpalpha | DRSC01994 | inactive |
| CG12594 | DRSC14532 | inactive |
| CG17027 | DRSC10238 | inactive |
| CG14187 | DRSC10186 | inactive |
